Laboratory results: PubChem BioAssay AID1259254 (NCATS, 2017)

Purpose: 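Gene knock-downs that lead to re-replication, shown by excess G2 DNA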 (primary screen)
Cells: human HCT116 colorectal cancer cells
Reagents: single siRNA against human genes
Timing: 3 days
Measurement: 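Imaged Hoechst DNA stain sorts each cell into a cycle phase by DNA amount; per plate, G2 fraction set to 0% for non-targeting and 100% for GMNN siRNA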
Direction: G2 robust z-score and G2 cells, % of GMNN control: higher = more G2 cells, more excess DNA replication
Active means: 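Active siRNAs have a G2 robust z of 5 or more median absolute deviations over the median, which in these data means about 38% or higher of GMNN control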
In all, the deposit lists about 59,000 reagents; this is an unselected part. About 1,550 of all reagents (2.6%) count as active. 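G2 share is only a proxy for re-replication; each gene was hit by three separate siRNAs, and active genes were retested.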 Entries without a mark were called inactive. The numbers tell different reagents against one gene apart. Not all columns of the deposit are shown. Not stated in the record: the amount of reagent.

With LINC00467 (long independently transcribed non-coding RNA 467) #1, what does the deposit list?
G2 robust z-score: -0.728; G2 cells, % of GMNN control: -2.15

With LINC00467 (long independently transcribed non-coding RNA 467) #2, what does the deposit list?
G2 robust z-score: -0.273; G2 cells, % of GMNN control: 1.05

For LINC00467 (long independently transcribed non-coding RNA 467) #3, what was measured?
G2 robust z-score: 0.521; G2 cells, % of GMNN control: 6.64

With PKD1L1-AS1 (PKD1L1 antisense RNA 1) #1, what does the deposit list?
G2 robust z-score: 0.131; G2 cells, % of GMNN control: 3.89

For PKD1L1-AS1 (PKD1L1 antisense RNA 1) #2, what was measured?
G2 robust z-score: -0.847; G2 cells, % of GMNN control: -2.99

What is on record for PKD1L1-AS1 (PKD1L1 antisense RNA 1) #3?
G2 robust z-score: 0.719; G2 cells, % of GMNN control: 8.02

How did the screen score SLC29A4P1 #1?
G2 robust z-score: 0.353; G2 cells, % of GMNN control: 5.45

What is on record for SLC29A4P1 #2?
G2 robust z-score: -0.775; G2 cells, % of GMNN control: -2.49

With SLC29A4P1 #3, how do the results read?
G2 robust z-score: 4.36; G2 cells, % of GMNN control: 33.7

What is on record for MKX (mohawk homeobox) #1?
G2 robust z-score: -0.922; G2 cells, % of GMNN control: -3.52

For MKX (mohawk homeobox) #2, what does the deposit list?
G2 robust z-score: -0.594; G2 cells, % of GMNN control: -1.21

With MKX (mohawk homeobox) #3, what was measured?
G2 robust z-score: 0.537; G2 cells, % of GMNN control: 6.74

Not a retest: entries from further up.
PKD1L1-AS1 (PKD1L1 antisense RNA 1) #3 — G2 robust z-score: 0.719; G2 cells, % of GMNN control: 8.02
SLC29A4P1 #1 — G2 robust z-score: 0.353; G2 cells, % of GMNN control: 5.45
